Data taken from patent US20200207820A1, “ANTIVIRAL, ANTIFIBROTIC AND ANTICANCER ACTIVITIES OF ROYAL-JELLY PROTEINS” (priority 2017, published 2020).
Some results were stated once for a whole list of compounds, not compound by compound.

Assay: Acute toxicity (Karber's method)
Type: in vivo, male Albino rats
Conditions: rats, 24 h; RJ intraperitoneal, SOV oral
Protocol: Karber's method was used to study the acute toxicity effect of RJ in comparison with SOV using male Albino rats and the median lethal dosage (LD50) was calculated.
Fifty-five male Albino rats (80-120 g) were purchased from MISR University for Science and Technology (animal welfare assurance number A5865-01). Animals were housed in metal cages and allowed free access to a standard commercial diet and tap water. Rats were kept under conventional conditions of temperature, humidity and twelve hours light/dark cycle. All rats were acclimatized to the laboratory environment for one week prior to handling and were observed daily for abnormal signs. Handling of animals complied with the international guide for the care and use of laboratory animals (National Research Council, 1996).
Animals were divided into eleven groups (five animals in each) starting from group I to group X beside the control (received only water as the vehicle). Groups from (I) to (V) were administered RJ intraperitoneally, while groups from (VI) to (X) were orally received SOV using the gavage tube. RJ and SOV were given to the animals at various doses (140, 350, 700, 2500 and 5000 mg/kg bw), one dose for each group of animals (group I and VI received the lowest dose). […]

CC(C)OC(=O)[C@H](C)N[P@](=O)(OC[C@H]1O[C@@H](n2ccc(=O)[nH]c2=O)[C@](C)(F)[C@@H]1O)Oc1ccccc1 [SOV, Sofosbuvir]
LD50: > 5000 mg/kg bw
